Source: paper PMC11237139
No constants are given. Whether binding was seen depends on the method and setting. Binding seen in cells or lysates may run through a third protein. Binding calls can cover weak binding; strength is not graded here.

Columns and labels:
Test in all cases: co-IP; N2a cells co-transfected with Flag-tagged receptor and Lrig1 plasmids, lysed after 48 h in TNTE buffer with 0.5% Triton-X-100; anti-Flag magnetic beads, 2 h at 4 °C; washed with TNTE 0.1% Triton; western blot for LRIG1 and FLAG
[1] = target: FLAG-tagged TGFβR1
[2] = target: FLAG-tagged TGFβR2
[3] = target: FLAG-tagged BMPR1B

Measured: binding

B1: mouse LRIG1 (leucine-rich repeats and immunoglobulin-like domains protein 1), overexpressed from a pCMV plasmid (protein, UniProt P70193 35-1091)
chain: AQAGPRAPCAAACTCAGDSLDCSGRGLATLPRDLPSWTRSLNLSYNRLSEIDSAAFEDLTNLQEVYLNSNELTAIPSLGAASIGVVSLFLQHNKILSVDGSQLKSYLSLEVLDLSSNNITEIRSSCFPNGLRIRELNLASNRISILESGAFDGLSRSLLTLRLSKNRITQLPVKAFKLPRLTQLDLNRNRIRLIEGLTFQGLDSLEVLRLQRNNISRLTDGAFWGLSKMHVLHLEYNSLVEVNSGSLYGLTALHQLHLSNNSISRIQRDGWSFCQKLHELILSFNNLTRLDEESLAELSSLSILRLSHNAISHIAEGAFKGLKSLRVLDLDHNEISGTIEDTSGAFTGLDNLSKLTLFGNKIKSVAKRAFSGLESLEHLNLGENAIRSVQFDAFAKMKNLKELYISSESFLCDCQLKWLPPWLMGRMLQAFVTATCAHPESLKGQSIFSVLPDSFVCDDFPKPQIITQPETTMAVVGKDIRFTCSAASSSSSPMTFAWKKDNEVLANADMENFAHVRAQDGEVMEYTTILHLRHVTFGHEGRYQCIITNHFGSTYSHKARLTVNVLPSFTKIPHDIAIRTGTTARLECAATGHPNPQIAWQKDGGTDFPAARERRMHVMPDDDVFFITDVKIDDMGVYSCTAQNSAGSVSANATLTVLETPSLAVPLEDRVVTVGETVAFQCKATGSPTPRITWLKGGRPLSLTERHHFTPGNQLLVVQNVMIDDAGRYTCEMSNPLGTERAHSQLSILPTPGCRKDGTTVGIFTIAVVCSIVLTSLVWVCIIYQTRKKSEEYSVTNTDETIVPPDVPSYLSSQGTLSDRQETVVRTEGGHQANGHIESNGVCLRDPSLFPEVDIHSTTCRQPKLCVGYTREPWKVTEKADRTAAPHTTAHSGSAVCSDCSTDTAYHPQPVPRDSGQPGTASSQELRQHDREYSPHHPYSGTADGSHTLSGGSLYPSNHDRILPSLKNKAASADGNGDSSWTLAKLHEADCIDLKPSPTLASGSPELMEDAISTEAQHLLVSNGHLPKACDSSPESVPLKGQITGKRRGPLLLAPRS
binds: all assays above
